Mtb growth Cornell: 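Whole-cell assay for inhibitors of Mycobacterium tuberculosis growth, labelled Cornell in the record; the read-out is not stated. The concentration is filed as 10 mM, unlikely as a test dose, so the dose is not known. Higher means stronger inhibition (inferred from two other growth screens of the library). Size under these conditions: about 53,000 compounds, about 900 of them at 50% or above in at least one test.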
Mtb heat-shock: 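Assay on Mycobacterium tuberculosis, filed only as a heat shock assay from Cornell; the read-out is not stated. The concentration is filed as 10 mM, unlikely as a test dose, so the dose is not known. Higher reads as stronger inhibition (inferred: compounds with an IC50 in retests scored well above the rest). Of about 69,000 compounds tested this way, about 930 (1.4%) reached 50% or more in at least one test.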

Results are given as percent effect. The controls that fix the scale are not given in the record; negative values are as filed. Compounds were drawn at random from those tested, without regard to their results. A dash means the value is not listed here; it may have been measured.

structure,Mtb growth Cornell,Mtb heat-shock
O=C(C1CCOCC1)N1CCCC1c1cncc(CN2CCCC2)n1 (stereo not shown),12.65,-20.38
O=C1CC(N(C(=O)c2csc(-c3ccccc3)n2)C2CC2)C(=O)N1 (stereo not shown),-4.373,-16.59
CCCc1cc(=O)[nH]c2nnc(SCC(=O)NC(C)(C)C)n12,5.279,2.659
O=c1[nH][nH]cc1-c1ccnc(NCCCN2CCOCC2)n1,-13.04,-12.47
[H][C@]12C[C@H](CNC(=O)C3CCC3)O[C@@]1([H])CN(C(=O)c1ccno1)C2,25.47,-9.166
Cc1nnc2n1CCN(C(=O)c1cn(-c3ccc(F)cc3)nn1)C2,19.08,-4.923
CCCNC(=O)c1cc2c(c3ccccc3n2C)n1C(=O)N(C)C,33.64,19.58
O=C(O)C1(Cc2ccccc2Cl)CCN(c2ncccn2)CC1,-,13.41
CN(C)Cc1cc(-c2nccn2CCc2cccnc2)ccc1O,27.58,-37.96
O=C(CC1CCN(c2ncnc3cccc(F)c23)CC1)N1CCCC1,2.081,-13.14
Cc1nc(CN(C)C2CCN(CCc3ccccn3)C2)no1 (stereo not shown),-,-34.59
N#Cc1ccc(NCCCN2C(=O)COc3ccccc32)nc1,1.036,11.15
O=C(NCCc1ccn(-c2ccccc2)n1)N1CCC1,-,1.412
Cc1cc(C(F)(F)F)c2c(=O)n(Cc3cc(C)on3)n(C)c2n1,26.25,5.417
O=C1COc2cc(S(=O)(=O)NCCC3=CCCCC3)c(Br)cc2N1,-,-37.27
CCC1=NC(SCC(=O)c2ccc(Cl)cc2)c2cc(CC)sc2N1 (stereo not shown),-,4.315
O=C(NCc1ccccc1)[C@@H]1Cc2[nH]cnc2CN1CC1CC1,-,-5.413
CN(CC1=CCCN(CCc2ccccn2)C1)C(=O)c1ccco1,4.948,-7.64
Cn1c(Cn2cccn2)nnc1C1CCN(Cc2cccnc2N)CC1,7.136,11.31
O=c1[nH]ccc2cc(-c3cc(O)cc(CCC4CCCCN4)c3)ccc12 (stereo not shown),-,-8.226
O=C(c1cc[nH]n1)N1CCN(C(c2ccccc2)C(F)(F)F)CC1 (stereo not shown),0.9976,-4.198
CCCc1nnc(N2CCC(N3CCCCCC3)CC2)o1,-,-17.25
Cc1c(CNC(=O)c2cn(CCC3CCCCN3)nn2)cnn1C (stereo not shown),4.585,-1.508
COCCn1ccnc1C1CCCN(C(=O)c2ccccc2C#N)C1 (stereo not shown),14.51,-10.54
CCc1nnc2n1CCN(C(=O)c1ccc3[nH]nnc3c1)C2,20.44,12.06
CC(SCc1ccc(Br)c2cccnc12)C(N)=O (stereo not shown),-11.79,-6.592
[H][C@@]12NC(=O)N[C@@H](c3ccc(OC)cc3)[C@]1([H])CCCO2,-33.22,5.684
N#CC1(C(=O)N2C[C@H](Nc3ncccn3)[C@@H](C3CC3)C2)CCOCC1,2.524,12.94
Cc1cc(CN(C)C(=O)c2ccc(OCC(F)(F)F)nc2)no1,-29.67,-0.385
O=C(O)C(F)(F)F.O=C(O)C(F)(F)F.c1ccc(COC[C@@H]2CCC[C@]23CN(Cc2nccs2)CCO3)nc1,7.576,-18.41
O=C(O)C(F)(F)F.[H][C@@]12CCN(Cc3ccc(C)s3)C[C@]1(COCC(=O)N(C)C)CCO2,-37.82,0.0926
c1cnn(CC2CCCCN2Cc2nc(-c3ccoc3)no2)c1 (stereo not shown),20.28,-32.12
COc1ccc(OC)c(CN(Cc2ccco2)Cc2[nH]cnc2C)c1.O=C(O)CC(O)(CC(=O)O)C(=O)O,50.25,-22.22
CC(C)NC(=O)NC[C@H]1OC[C@@H](NCc2cccs2)[C@@H]1O,-14.89,-8.879
N#Cc1cc(C#N)c(SCC(=O)NCc2ccc(F)cc2)nc1N,-17.09,-0.1829
O=C(c1ccc[nH]1)N1CCCC1c1nc(-c2ccccc2)n[nH]1 (stereo not shown),-3.922,3.81
CCc1ccc(NC(=O)c2ncc(C(N)=O)cc2Cl)cc1F,15.72,-1.964
O=C(NCC1CC[C@@]2(CNCCOC2)O1)c1cnccn1 (stereo partly shown),-23.91,-27.4
CCc1nc(CNCC2CCCN2c2cccnn2)cs1 (stereo not shown),-,0.6291
O=C(COc1ccccc1)NCC1CC1,12.18,4.536
O=C(O)C(F)(F)F.O=C(O)C(F)(F)F.[H][C@@]12CN(CC3CC3)C[C@]1([H])OCCN2c1ncccn1,-,-34.72
CCC1(CO)CCCN(Cc2nccn2Cc2ccccc2)C1 (stereo not shown),-,3.818
CS(=O)(=O)Nc1ccn(Cc2ccc(Cl)cc2)n1,-,-6.379
O=C(CN1CC(c2nc(-c3ccco3)no2)C1)NCc1ccc(F)cc1.O=C(O)C(=O)O,26.13,-10.6
COc1cccc(S(=O)(=O)NC2CNC(=O)C2)c1 (stereo not shown),-12.41,-17.93
O=C(Cc1csc(Cc2ccccn2)n1)NCCCN1CCCC1=O,-34.15,-16.31
CCC(C)(C)C(=O)Nc1ccc2ccn(CC(=O)NC)c2c1,-7.45,9.46
Cc1nn(C)c(C)c1NC(=O)CN1CCc2c(nc(C(C)C)n2C)C1,-,7.265
CC(C)CNC(=O)CNC(=O)NCC(O)c1ccc2ccccc2c1 (stereo not shown),-,1.436
O=C(NC1CCN(C(=O)C2CCCCC2)C1)c1ccncc1Cl (stereo not shown),9.111,7.54
CN(Cc1ccsc1)C(=O)c1n[nH]c(N)c1-c1ccccc1,-26.74,17.91
O=C(CCc1cn[nH]c1)N1C[C@H](CO)C[C@H](CN2CCOCC2)C1,-,-22.6
CN(C)c1nc2n(c(=O)n1)CCN2C(=O)Nc1ccc(Cl)cc1,-48.51,6.574
O=C(c1cc(=O)n(-c2ccccc2)[nH]1)N1CCOCC(O)C1 (stereo not shown),-,13.15
CC(C)c1nccn1C(C)C(=O)N1CCN(c2ccccc2Cl)CC1 (stereo not shown),-25.1,-23.83
O=C(Nc1ncnc2c1CCC2)c1ccc2c(c1)OCO2,-6.337,-4.106
[H][C@]12CC[C@]([H])(CN(Cc3cn(C)nc3C)C1)N(Cc1c(C)noc1C)C2=O,-20.08,-4.796
CCCc1cc(CNC(=O)Cc2cc(C)no2)on1,-9.464,5.371
COc1ccc(CNC(=O)NC2CCN(c3ccccc3)C2=O)cc1 (stereo not shown),3.343,5.768
[H][C@]12CN(Cc3ccccc3Br)C[C@]1([H])OCC(=O)N2,-36.6,-23.35
[H][C@@]12CC(=O)N(Cc3ccncc3)[C@@]1([H])CCN2Cc1cnn(C)c1,29.24,11.14
Cc1occc1C(=O)N1CCc2c(CNc3ncccn3)cncc2C1.Cl,27,-3.832
Cc1noc(C)c1-c1nc(C2CCCN(C(=O)CN)C2)ccc1CO (stereo not shown),46.8,-11.16
CC1CC2(CCN(C(=O)c3csnn3)CC2)c2ccccc21 (stereo not shown),31.77,1.645
CCOc1ccccc1N(C)Cc1nccn1C,24.52,-32.98
CC(CO)(NC(=O)NCCc1ccc(Br)s1)C1CC1 (stereo not shown),21.86,-7.832
Cc1cc(Br)cnc1N(C)CC1CCOC1 (stereo not shown),8.061,0.9555
Cc1cnn(CCNCC(O)c2ccc(S(C)(=O)=O)cc2)c1 (stereo not shown),13.21,-4.495
CSCc1nc(CCNC(=O)C2CCCN(C(C)=O)C2)cs1 (stereo not shown),11.77,10.69
COCCN1CCN(CCS(=O)(=O)c2cccc(OC)c2)CC1,5.243,5.671
CC(=O)Nc1nc2c(s1)C(C)(C)Nc1ccccc1S2,-7.022,0.6826
COCCCN(Cc1ccccn1)Cc1ccnn1C1CCCCO1.O=C(O)CC(O)(CC(=O)O)C(=O)O (stereo not shown),-33.92,-20.24
O=C(O)C(F)(F)F.O=C(O)C(F)(F)F.[H][C@@]12CCN(c3ncccn3)[C@]1([H])CC[C@H](C(=O)NC1CCN(C)CC1)O2,-38.42,-8.035
CO[C@@H]1CN(c2ccccc2)S(=O)(=O)[C@@]12CCNC2,-30.18,-23.16
O=C(CSc1ccncc1)N1CCC2(CC1)c1ccccc1CC2O (stereo not shown),28.66,-6.776
COCCCNC(=O)Cc1cc(-c2ccc(Cl)cc2)on1,-3.554,20.32
Cc1cc(S(=O)(=O)NCC(C)(O)CN(C)C)c(F)cc1F (stereo not shown),5.794,-6.247
O=C(C1CCCC1)N1CCC(c2ncc3c(n2)CCNC3)C1 (stereo not shown),-23.35,11.94
COCC[C@]1(O)CCN(C(=O)CCc2cnn(C)c2)C[C@H]1C,21.96,15.99
CSc1cc2c(cc1NC(=O)NCCn1ccnc1)OCCO2,-,4.731
COCCCNC(=O)C(C)n1cc(Br)cn1 (stereo not shown),-31.18,-22.7
Cc1cccc(OCCN2CCN(Cc3cnn(CCO)c3)CC2)c1,-,8.153
OC(c1ccccc1)c1cn(C2CCN(Cc3nccs3)CC2)nn1 (stereo not shown),-,-13.06

5 of the entries, repeated:

{"structure": "O=C(NCCc1ccn(-c2ccccc2)n1)N1CCC1", "Mtb heat-shock": 1.412}
{"structure": "O=C(CC1CCN(c2ncnc3cccc(F)c23)CC1)N1CCCC1", "Mtb growth Cornell": 2.081, "Mtb heat-shock": -13.14}
{"structure": "Cc1cc(Br)cnc1N(C)CC1CCOC1", "stereo": "stereo not shown", "Mtb growth Cornell": 8.061, "Mtb heat-shock": 0.9555}
{"structure": "CCc1ccc(NC(=O)c2ncc(C(N)=O)cc2Cl)cc1F", "Mtb growth Cornell": 15.72, "Mtb heat-shock": -1.964}
{"structure": "Cc1cccc(OCCN2CCN(Cc3cnn(CCO)c3)CC2)c1", "Mtb heat-shock": 8.153}

Measurements from “University of Dundee, Small-Polar-MMV Screening Library” (2021), ChEMBL document CHEMBL3988442.